Data as given in PubChem BioAssay AID248 (DTP/NCI, 2004).
Toxic doses and inconclusive results are not listed. No stated cut-off is given here; in the data, active means T/C of 150% or more; inactive means T/C below 125%.

System: L1210 leukemia ip in BDF1 mice, survival T/C
Assay: NCI In Vivo Anticancer Drug Screen. Data for tumor model L1210 Leukemia (intraperitoneal) in B6D2F1 (BDF1) mice
Conditions: endpoint: mean survival time, higher = longer survival
How it was run: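 Transplantable tumor model; survival measured in treated vs vehicle control mice. Value = treated/control.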

Measured: T/C

CCCC(NC(=O)OC(C)(C)C)C(=O)O (stereo unspecified)
inactive: dose: 75.0 mg/kg/injection, schedule: Q01DX009 (ip), vehicle: saline with Tween-80 = 98 % of control | dose: 100.0 mg/kg/injection, schedule: Q04DX002 (ip), vehicle: Klucel (hydroxypropylcellulose) (HPC) 111 % of control | dose: 150.0 mg/kg/injection, schedule: Q01DX009 (ip), vehicle: saline with Tween-80 = 94 % of control | dose: 200.0 mg/kg/injection, schedule: Q04DX002 (ip), vehicle: Klucel (hydroxypropylcellulose) (HPC) 97 % of control | dose: 300.0 mg/kg/injection, schedule: Q01DX009 (ip), vehicle: saline with Tween-80 = 102 % of control | dose: 400.0 mg/kg/injection, schedule: Q04DX002 (ip), vehicle: Klucel (hydroxypropylcellulose) (HPC) 101 % of control
